PubChem BioAssay AID1224830 – NIAID, 2016
The deposit covers about 18,000 reagents; below is a random part of them. About 2,900 of them (16%) were called active. 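Calls are made per well; low scores hint the gene aids the LPS response, high scores that it dampens it.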 Repeated entries: four replicate wells of each siRNA pool. Reagent sequences are not shown.

Screen: 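Regulators of TLR4 signalling towards TNF-alpha in macrophage-like cells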 (primary screen)
Cell system: human THP-1 monocytic leukaemia cells, TNF dual-luciferase reporter clone, PMA-differentiated to macrophage-like cells
Knock-down reagent: siRNA pool against human genes, 50 nM
Timing: LPS for 4 h, given about 3 days after siRNA transfection
Challenge: bacterial LPS (TLR4 ligand), 10 ng/ml
Measured: 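Ratio of firefly to renilla light, scaled to the plate median and expressed as a robust z-score per replicate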
Scale: TNF reporter robust z-score: higher = stronger TNF reporter response to LPS
Active means: 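Each well counts as active if its z-score is over 2.8 or under -1.5; controls are left without a call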

gene | TNF reporter robust z-score | outcome
CSNK1E (casein kinase 1 epsilon) | -0.3 | inactive
CSNK1E (casein kinase 1 epsilon) | -1.15 | inactive
CSNK1E (casein kinase 1 epsilon) | -0.21 | inactive
CSNK1E (casein kinase 1 epsilon) | -1.06 | inactive
PTPN18 (protein tyrosine phosphatase non-receptor type 18) | -0.79 | inactive
PTPN18 (protein tyrosine phosphatase non-receptor type 18) | -0.43 | inactive
PTPN18 (protein tyrosine phosphatase non-receptor type 18) | 1.06 | inactive
PTPN18 (protein tyrosine phosphatase non-receptor type 18) | 0.12 | inactive
EXO5 (exonuclease 5) | -0.23 | inactive
EXO5 (exonuclease 5) | -0.49 | inactive
EXO5 (exonuclease 5) | -1.09 | inactive
EXO5 (exonuclease 5) | -0.97 | inactive
SPOUT1 (SPOUT domain containing methyltransferase 1) | -0.4 | inactive
SPOUT1 (SPOUT domain containing methyltransferase 1) | -0.37 | inactive
SPOUT1 (SPOUT domain containing methyltransferase 1) | 0.54 | inactive
SPOUT1 (SPOUT domain containing methyltransferase 1) | 0.12 | inactive
BIK (BCL2 interacting killer) | -1 | inactive
BIK (BCL2 interacting killer) | -0.05 | inactive
BIK (BCL2 interacting killer) | -0.12 | inactive
BIK (BCL2 interacting killer) | -0.28 | inactive
RPL37A (ribosomal protein L37a) | 1.67 | inactive
RPL37A (ribosomal protein L37a) | 2.51 | inactive
RPL37A (ribosomal protein L37a) | 1.35 | inactive
RPL37A (ribosomal protein L37a) | 0.03 | inactive
ECT2 (epithelial cell transforming 2) | 1.16 | inactive
ECT2 (epithelial cell transforming 2) | 1.19 | inactive
ECT2 (epithelial cell transforming 2) | 0.39 | inactive
ECT2 (epithelial cell transforming 2) | 0.6 | inactive
TDG (thymine DNA glycosylase) | -0.55 | inactive
TDG (thymine DNA glycosylase) | -0.67 | inactive
TDG (thymine DNA glycosylase) | 0.43 | inactive
TDG (thymine DNA glycosylase) | 0.06 | inactive
POLK (DNA polymerase kappa) | -0.92 | inactive
POLK (DNA polymerase kappa) | -0.93 | inactive
POLK (DNA polymerase kappa) | -1.24 | inactive
POLK (DNA polymerase kappa) | -0.05 | inactive
PDE6B (phosphodiesterase 6B) | 1.81 | inactive
PDE6B (phosphodiesterase 6B) | -0.01 | inactive
PDE6B (phosphodiesterase 6B) | 1.08 | inactive
PDE6B (phosphodiesterase 6B) | 0.27 | inactive

Already shown: entries from further up.
gene | TNF reporter robust z-score | outcome
RPL37A (ribosomal protein L37a) | 2.51 | inactive
RPL37A (ribosomal protein L37a) | 1.35 | inactive
RPL37A (ribosomal protein L37a) | 0.03 | inactive
ECT2 (epithelial cell transforming 2) | 1.16 | inactive
ECT2 (epithelial cell transforming 2) | 1.19 | inactive
ECT2 (epithelial cell transforming 2) | 0.39 | inactive
ECT2 (epithelial cell transforming 2) | 0.6 | inactive

Next results follow:
gene | TNF reporter robust z-score | outcome
AFF1 (ALF transcription elongation factor 1) | -1.21 | inactive
AFF1 (ALF transcription elongation factor 1) | 0.18 | inactive
AFF1 (ALF transcription elongation factor 1) | 1.34 | inactive
AFF1 (ALF transcription elongation factor 1) | 1.75 | inactive
CLDN5 (claudin 5) | -0.42 | inactive
CLDN5 (claudin 5) | -0.16 | inactive
CLDN5 (claudin 5) | -0.18 | inactive
CLDN5 (claudin 5) | -0.12 | inactive
ANXA3 (annexin A3) | 0.89 | inactive
ANXA3 (annexin A3) | 1.12 | inactive
ANXA3 (annexin A3) | 0.82 | inactive
ANXA3 (annexin A3) | 0.48 | inactive
HIPK2 (homeodomain interacting protein kinase 2) | 0.31 | inactive
HIPK2 (homeodomain interacting protein kinase 2) | 1.07 | inactive
HIPK2 (homeodomain interacting protein kinase 2) | 2.4 | inactive
HIPK2 (homeodomain interacting protein kinase 2) | 1.79 | inactive
IPO11 (importin 11) | -0.79 | inactive
IPO11 (importin 11) | -0.41 | inactive
IPO11 (importin 11) | 0.43 | inactive
IPO11 (importin 11) | 1.05 | inactive
SYNC (syncoilin, intermediate filament protein) | -1.21 | inactive
SYNC (syncoilin, intermediate filament protein) | -1.2 | inactive
SYNC (syncoilin, intermediate filament protein) | -0.67 | inactive
SYNC (syncoilin, intermediate filament protein) | -0.68 | inactive
CYLC1 (cylicin 1) | 2.03 | inactive
CYLC1 (cylicin 1) | -0.3 | inactive
CYLC1 (cylicin 1) | 1.11 | inactive
CYLC1 (cylicin 1) | 2.09 | inactive
PDCD6 (programmed cell death 6) | 1.16 | inactive
PDCD6 (programmed cell death 6) | 2.64 | inactive
PDCD6 (programmed cell death 6) | 3.13 | active
PDCD6 (programmed cell death 6) | 4.05 | active
EFCAB14 (EF-hand calcium binding domain 14) | -0.7 | inactive
EFCAB14 (EF-hand calcium binding domain 14) | -0.75 | inactive
EFCAB14 (EF-hand calcium binding domain 14) | -0.29 | inactive
EFCAB14 (EF-hand calcium binding domain 14) | -0.71 | inactive
PEX3 (peroxisomal biogenesis factor 3) | -0.57 | inactive
PEX3 (peroxisomal biogenesis factor 3) | -0.78 | inactive
PEX3 (peroxisomal biogenesis factor 3) | -0.82 | inactive
PEX3 (peroxisomal biogenesis factor 3) | -0.15 | inactive
ESPL1 (extra spindle pole bodies like 1, separase) | 0.35 | inactive
ESPL1 (extra spindle pole bodies like 1, separase) | 0.83 | inactive
ESPL1 (extra spindle pole bodies like 1, separase) | 0.29 | inactive
ESPL1 (extra spindle pole bodies like 1, separase) | 1.19 | inactive
LINC02145 (long independently transcribed non-coding RNA 2145) | 1.44 | inactive
LINC02145 (long independently transcribed non-coding RNA 2145) | 0.34 | inactive
LINC02145 (long independently transcribed non-coding RNA 2145) | 1.43 | inactive
LINC02145 (long independently transcribed non-coding RNA 2145) | -0.05 | inactive
HSD17B2 (hydroxysteroid 17-beta dehydrogenase 2) | -1.29 | inactive
HSD17B2 (hydroxysteroid 17-beta dehydrogenase 2) | -0.99 | inactive
HSD17B2 (hydroxysteroid 17-beta dehydrogenase 2) | -0.91 | inactive
HSD17B2 (hydroxysteroid 17-beta dehydrogenase 2) | -1.02 | inactive
MIA3 (MIA SH3 domain ER export factor 3) | 0.64 | inactive
MIA3 (MIA SH3 domain ER export factor 3) | 0.59 | inactive
MIA3 (MIA SH3 domain ER export factor 3) | 0.42 | inactive
MIA3 (MIA SH3 domain ER export factor 3) | 0.71 | inactive
TBC1D22B (TBC1 domain family member 22B) | 1.79 | inactive
TBC1D22B (TBC1 domain family member 22B) | 3.59 | active
TBC1D22B (TBC1 domain family member 22B) | 2.36 | inactive
TBC1D22B (TBC1 domain family member 22B) | 0.88 | inactive
SLC22A11 | -0.83 | inactive
SLC22A11 | -0.94 | inactive
SLC22A11 | 0.72 | inactive
SLC22A11 | -0.71 | inactive
FBXO38 (F-box protein 38) | -1.03 | inactive
FBXO38 (F-box protein 38) | -0.64 | inactive
FBXO38 (F-box protein 38) | -1.55 | active
FBXO38 (F-box protein 38) | -1.57 | active
LATS1 (large tumor suppressor kinase 1) | -1.68 | active
LATS1 (large tumor suppressor kinase 1) | -0.43 | inactive
LATS1 (large tumor suppressor kinase 1) | 0.23 | inactive
LATS1 (large tumor suppressor kinase 1) | -0.65 | inactive
